Assay results reported in PMC7704496.
Construct, isoform or probe ends are uncertain for at least one entry. For some assays here: Negatives hold for the conditions tested.

Protein sequences, listed by entry. Tags and fused reporters are not part of them. Lines headed by an entry give the natural chain unless they say otherwise; changes in a name come on top.
UniProt O54310: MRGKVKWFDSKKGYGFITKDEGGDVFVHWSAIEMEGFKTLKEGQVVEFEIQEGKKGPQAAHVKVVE

Key:
[1] = biological target: TmCsp (cold shock protein) (Thermotoga maritima) (UniProt O54310); assay: EMSA; conditions: 0.5 uM oligo, room temperature, EMSA: 50 mM NaH2PO4 pH 6.5, 20 mM NaCl, 0.2 mM EDTA, room temperature 1 h, 20% gel in 1xTBE at 4 C, recombinant protein, label: none (5'-fluorescein in EMSA), single-stranded DNA
[2] = biological target: TmCsp (cold shock protein) (Thermotoga maritima) (UniProt O54310); assay: Trp fluorescence quenching; conditions: recombinant protein, label: none (5'-fluorescein in EMSA), single-stranded DNA
[3] = up to 100 uM TmCsp (also 300 uM)

Sequence	binding result ([1]; up to 100 uM TmCsp)	Kd ([2]; 323 K) [µM]	Kd ([2]; 343 K) [µM]	binding result [1, 3]
CCCCCCC [(dC)7]	no binding	–	–	–
AAAAAAA [(dA)7]	–	19.2	25.2	no binding
GGGGGGG [(dG)7]	–	–	–	no binding
